Values joined by “and” are separate entries in the source; they are usually repeats but may differ in a detail not shown here. Identical values can stand only once. Marks after values point to notes of the source that are not given here.
System: Large White/Landrace parity 1 sows
Experiment: Paylean (ractopamine) treatment during first lactation: maternal catabolism, post-weaning fertility, piglet growth, milk composition (Example 2)
Type: in vivo, pig
Experimental: This experiment was conducted at the University of Adelaide's Pig and Poultry Production Institute (PPPI) at Roseworthy, South Australia, with approval from the animal ethics committees of Primary Industries and Resources South Australia and The University of Adelaide. The experiment used sixty Large White/Landrace parity 1 sows, and was conducted in four replicates: replicates one and two were run in October and November 2006, respectively (spring); and replicates three and four were run in March and April 2007, respectively (autumn).
At entry into the farrowing shed, Sixty Large White/Landrace first parity sows were weighed, and P2 backfat and maximum eye muscle depth (MMD) measured. Sows were then stratified according to both liveweight and body composition and allocated to one of two treatment groups (n=30 sows). One group (Control) received a standard lactation diet (0.71 g avail. lys/MJ DE) throughout lactation, whilst the other group (Ractopamine) received the same standard lactation diet but supplemented with ractopamine at 10 parts per million (ppm) from days 1-13 of lactation and 20 ppm from day 14 of lactation until mating. Dietary treatments commenced on day 1 of lactation (Day 0=first 24 hours after farrowing). During lactation, the amount of feed offered each day was stepped up gradually, reaching 6 kg/day by day 7 of lactation, and was fed over three meals per day, with daily feed disappearance recorded for each sow. Weaning took place 21 days after farrowing, and between weaning and first Al sows received 3 kg/day of their respective diets. Sows were weighed, and P2 backfat and MMD measured on days 1, 7, 14 and 20 of lactation. Gilts were weighed prior to being fed, and P2 backfat and MMD were measured over the last rib 65 mm down from the vertebrae by an experienced commercial operator using a 3.5 MHz linear probe (Ausonics Impact). Litter size was standardised to 9 piglets within 24 hours of farrowing, with piglets receiving only maternal milk as their feed source and weighed on days 1, 7, 13 and 20 of their mother's lactation. Maternal milk samples were collected on days 3, 13 and 20 of lactation and analysed for fat and protein content.
After weaning, sows were housed in groups of three or four. Boar exposure commenced on the fourth day after weaning, consisted of 15 minutes of full, physical boar contact and was conducted in a detection mating area (DMA). At their first oestrus after weaning, sows two artificial inseminations (AIs), 24 hours apart.
All Als took place in the DMA, with fence-line contact with a boar during the procedure. Inseminations were performed as per standard industry practice using disposable spirette catheters, with each insemination consisting of an 80 ml dose of fresh, extended semen (3×10^9 spermatozoa per inseminate; <4 days old). Semen used for this experiment was purchased from a commercial artificial insemination collection centre (SABOR Pty. Ltd, Clare, South Australia). Sows not detected in oestrus by 10 days after weaning were described as anoestrous.

SMILES: CC(CCc1ccc(O)cc1)NCC(O)c1ccc(O)cc1 (racemic) [Ractopamine, ractopamine]
- Milk fat (g/l) (day 3 of lactation): 80.4^c g/l
- Milk protein (day 3 of lactation): 45.7 g/L
- Milk fat (g/l) (day 13 of lactation): 64.7^a g/l
- Milk protein (day 13 of lactation): 39 g/L
- Milk fat (g/l) (day 20 of lactation): 65.8^a g/l
- Milk protein (day 20 of lactation): 39.9 g/L
- Milk fat (g/l) (pooled across day): tended (P=0.064) to be higher and 70.3* g/l
- Milk protein (g/l) (pooled across day): significantly lower and 41.5^g g/l

— patent US8993635B2, “Method of increasing or maintaining the reproductive performance of sows” (Pork CRC Ltd, priority 2010, dated 2015)
